Measurements from paper PMC2672303, “Dosage Effects of Cohesin Regulatory Factor PDS5 on Mammalian Development: Implications for Cohesinopathies”.
The comparison behind a weaker result is the experiment's own reference, which may not be listed here. Tags and fusion partners may be left off the protein sequences shown.

Target: T1, C-PDS5B-His R1292Q (Homo sapiens) (UniProt Q9NTI5)
T1 sequence (looked up): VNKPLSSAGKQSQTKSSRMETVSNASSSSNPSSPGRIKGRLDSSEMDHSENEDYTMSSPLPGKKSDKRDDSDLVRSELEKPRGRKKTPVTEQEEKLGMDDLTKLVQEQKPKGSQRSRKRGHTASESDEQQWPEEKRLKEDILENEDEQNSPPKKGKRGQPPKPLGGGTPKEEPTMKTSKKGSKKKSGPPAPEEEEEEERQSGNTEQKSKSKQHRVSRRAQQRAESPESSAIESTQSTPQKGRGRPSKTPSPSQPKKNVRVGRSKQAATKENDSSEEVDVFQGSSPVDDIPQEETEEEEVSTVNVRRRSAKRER
Assay: EMSA
Conditions: 5-40 ng protein, decreased compared to wild type; EMSA: 20 ng protein (5-40 ng in Fig. 7E) with 2.25 pmol 32P probe, 25 C, 5 min, 6% polyacrylamide gel; protein dialyzed in 50 mM Tris pH 7.5, 0.5 mM EDTA, 100 mM NaCl; recombinant protein; residues 1134-1446; protein details: N-terminal HA, C-terminal 6xHis; label: 32P

## GGACTCCAGGTCCAGGACCGCTTTTTGCGCGCGCTTTTTGCGGGAGGTCCAGCTGTCCACCTCC (double strand) [T5-8-T5 probe]
  binding result: binds more weakly
